# Experimental data: PubChem BioAssay AID2685 (National Center for Advancing Translational Sciences (NCATS), 2010)
# The list shows a part of the results. The main result of the screen is listed elsewhere. These columns were measured beside it and carry no call. Compounds called inactive in the main read-out are mostly missing here. Potencies come from curve fits of mixed quality, noted in brackets.
# Test: qHTS Assay for Lipid Storage Modulators in Drosophila S3 Cells;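 as to cell number change: cells counted by Cell Tracker Red CMTPX staining in the red channel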
# Settings: BODIPY lipid droplet fluorescence, 18-24 h; for cell number change: measured here: cell count max response, cells fed with added oleic acid
# How it was run: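 Drosophila S3 cells loaded with oleic acid (400 uM, as added) and compounds at several concentrations; lipid droplets imaged by 488-nm laser-scanning cytometry, 500–530 nm intensity and object ratio to cell channel. Percent activity normalized to 20 uM Triacsin C.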
# [1] = measured here: lipid fluorescence (Fed channel) AC50, cells fed with added oleic acid
# [2] = measured here: cell number channel AC50, cells fed with added oleic acid
SMILES,cell number change [%],AC50 [1],AC50 [2]
COc1ccc(NC(=O)CSC2=NCCN2)cc1,4.44,–,–
O=C(Nc1ccncc1)c1ccccc1-c1ccccc1,-19.3,"0.0731 µM [falling, full curve]",–
COc1cc(C(=O)Nc2ccc(C(F)(F)F)cc2)ccc1OCC(=O)N1CCOCC1,63.5,–,"18.4 µM [rising, partial curve]"
CCN(CC1COc2ccccc2O1)C(=O)CN1C(=O)NC(C)(c2ccc(C)cc2)C1=O (stereo not drawn),3.07,"29.1 µM [falling, single point]",–
Cc1nc(N)nc(C)c1Cc1ccccc1,1.84,"0.92 µM [falling, full curve, poor fit]",–
COc1ccccc1NS(=O)(=O)/C=C/c1ccccc1,12.6,"14.6 µM [rising, partial curve]",–
O=C1NC(c2ccc(-c3ccccc3[N+](=O)[O-])o2)C(C(=O)c2ccccc2)C(O)(C(F)(F)F)N1 (stereo not drawn),-29.1,"29.1 µM [falling, single point]",–
COc1cc(SC)ccc1C(=O)NCC1CCCO1 (stereo not drawn),34.8,"10.3 µM [falling, single point]","1.64 µM [rising, partial curve]"
O=C(NCc1ccco1)c1nc2ncccn2n1,6.09,"6.51 µM [falling, single point]",–
COc1ccc(NS(=O)(=O)c2cc(C(=O)N3CCC3)ccc2C)cc1,48.1,"32.6 µM [rising, partial curve, poor fit]","29.1 µM [rising, single point]"
O=C(COC(=O)c1ccc2c(c1)OCCO2)Nc1cccc(S(=O)(=O)N2CCOCC2)c1,59.1,"20.6 µM [rising, partial curve]","16.4 µM [rising, single point]"
COc1ccc(NC(=O)C2CCCN(S(=O)(=O)c3ccc(-n4cnnn4)cc3)C2)cc1 (stereo not drawn),-44.3,"29.1 µM [rising, single point]","23.1 µM [falling, single point]"
C=CCN1C(=O)C2(NC(=O)c3ccccc3N2)c2ccccc21 (stereo not drawn),-44.1,"18.4 µM [falling, single point]","13 µM [falling, partial curve]"
CC1CCc2[nH]c3ccc(C(=O)NCC4CCCO4)cc3c2C1 (stereo not drawn),–,"1.64 µM [falling, partial curve, poor fit]",–
COc1cc(NS(=O)(=O)c2ccc(NS(=O)(=O)c3ccccc3)cc2)nc(OC)n1,-30.1,"0.146 µM [falling, full curve, poor fit]","2.59 µM [falling, full curve]"
CC1(C)Cc2ccccc2C(/C(=N/O)C(N)=O)=N1,3.2,"0.00461 µM [falling, full curve, poor fit]",–
CNc1nc(SCC(=O)Nc2ccc(Cl)c(Cl)c2)nc(N2CCOCC2)n1,81.7,–,"20.6 µM [rising, partial curve]"
COC(C(=O)Nc1cccc([N+](=O)[O-])c1)c1ccccc1 (stereo not drawn),-2.37,–,–
CCC(C(=O)NCc1ccc(F)cc1)N(Cc1cccs1)C(=O)c1snc(C(N)=O)c1N (stereo not drawn),-6.58,–,–
O=C(NCc1cccc(C(F)(F)F)c1)C1CCN(c2ncccn2)CC1,4.61,–,–

SMILES,cell number change [%],AC50 [1],AC50 [2]
CCc1c(C)nc2ncnn2c1N1CCCC(C(=O)NCCc2ccccc2)C1 (stereo not drawn),-29,–,–
COc1ccc(/C=N/NC(=O)CCOc2ccccc2C)cc1OC,15.1,"32.6 µM [rising, single point]",–
O=C(CSc1nnc(COc2ccc(Br)cc2)o1)NC1CCCCC1,34.6,–,"1.64 µM [rising, partial curve]"
NC(=O)COC(=O)/C=C/c1ccccc1[N+](=O)[O-],-39.5,"4.61 µM [falling, full curve, poor fit]","5.17 µM [falling, full curve]"
CCSc1nc2c(c(=O)[nH]c(=O)n2C)n1C/C=C(/C)Cl,12.1,"0.731 µM [rising, full curve]",–
C/C(=N\NC(=O)c1ccc(N)cc1)C1CC1,23.5,–,–
Cc1c(NC(=O)COC(=O)/C=C/c2ccccc2Br)c(=O)n(-c2ccccc2)n1C,-19.3,"0.00651 µM [rising, full curve, poor fit]",–
Cc1noc(C)c1C(=O)OCC(=O)Nc1ccccc1Oc1ccccc1,114,"20.6 µM [rising, partial curve]","14.6 µM [rising, partial curve]"
CCOC(=O)c1sc2nc(-c3ccccc3)ccc2c1N,-15.9,"2.31 µM [rising, single point]",–
CCS(=O)(=O)N1CCC(N2CCC(C)CC2)CC1,-22.3,"16.4 µM [falling, single point]",–
CCC(C)N1C(=O)S/C(=C/c2ccc3c(c2)n(C)c(=O)n3C)C1=O (stereo not drawn),-30.4,–,"29.1 µM [falling, single point]"
Cn1nnnc1SCC(=O)N1CCN(c2ccccc2)CC1,–,–,"0.00411 µM [falling, full curve, poor fit]"
Cn1ccc(NS(=O)(=O)c2cc(Br)ccc2Br)n1,52.3,"20.6 µM [rising, single point]","32.6 µM [rising, partial curve, poor fit]"
Cc1ccc(S(=O)(=O)NC(C)(C)C)cc1C(=O)OC(C)C(=O)NC1CC1 (stereo not drawn),11.5,–,–
COc1cc2c(cc1OC)C(C)N(C(=O)c1ccc(Br)o1)CC2 (stereo not drawn),10.7,"29.1 µM [rising, single point]",–
O=C(NCc1cccs1)C1CCCCC1,-88.6,–,"29.1 µM [falling, single point]"
O=C(NC1CCCC1)C(c1ccc(O)cc1)N(CC1CCCO1)C(=O)C1COc2ccccc2O1 (stereo not drawn),88.5,"6.51 µM [rising, single point]","18.4 µM [rising, single point]"
COc1ccc(/C(=C/Nc2cccc(Br)c2)C(C)=O)cc1OC,24.6,–,–
COc1ccc(CCNc2oc(COc3ccc(F)cc3)nc2C#N)cc1,–,"6.51 µM [rising, single point]","3.66 µM [rising, partial curve, poor fit]"
CCC(C)NC(=O)NC1C(NC(=O)NC(C)CC)N(C)C(=O)N1C (stereo not drawn),1.56,"6.51 µM [falling, single point]",–

SMILES,cell number change [%],AC50 [1],AC50 [2]
Cc1ccc(NC(=S)N(CCCN2CCOCC2)Cc2ccco2)cc1,–,"29.1 µM [rising, single point]","6.51 µM [falling, single point]"
O=C(CN1C2=NCCN2c2ccccc21)c1ccc2c(c1)OCO2,-1.47,"10.3 µM [rising, single point]",–
Cc1cccc(C)c1NC(=O)C1c2ccccc2Oc2ccccc21,3.52,–,–
CCOP(=O)(c1ccccc1)c1nc(-c2ccccc2Cl)oc1N1CCCCC1 (stereo not drawn),-49.8,"29.1 µM [falling, single point]","23.1 µM [falling, single point]"
Cc1ccc(C(=O)OCC(=O)Nc2sc3c(c2C#N)CCCCC3)cc1NC(=O)c1ccco1,-13.8,–,"6.51 µM [falling, partial curve]"
CC(=O)C1=C(C)OC(N)=C(C#N)C1c1cccc([N+](=O)[O-])c1 (stereo not drawn),-4.05,–,–
COc1ccc(OC)c(NS(=O)(=O)c2cc3c4c(c2)CCN4C(=O)CC3)c1,-98.2,"0.206 µM [rising, full curve, poor fit]","20.6 µM [falling, single point]"
CCCc1cc(=O)[nH]c(SCC(=O)Nc2ccc(Br)cc2Br)n1,46.1,"0.0731 µM [falling, full curve, poor fit]","18.4 µM [rising, single point]"
CCOc1ccc(NC(=O)CCc2nnc3ccc(N4CCC(C)CC4)nn23)cc1,3.05,"23.1 µM [falling, single point]",–
Cc1nn(-c2cc(C(F)(F)F)ccc2Cl)c2nc(C(Cl)(Cl)Cl)[nH]c(=O)c12,-26.6,"4.61 µM [falling, full curve, poor fit]","4.11 µM [falling, full curve, poor fit]"
Cc1ccnc(NS(=O)(=O)c2ccc(NC(=O)c3cc(-c4ccccc4)nc4ccccc34)cc2)n1,1.93,–,–
COc1ccccc1-n1c(SCC(=O)Nc2ccc(Br)cc2)nc(O)cc1=O,-39.6,–,"5.8 µM [falling, full curve]"
CCN(CC)C(=O)Cn1c(=O)n(CCCCCC(=O)Nc2ccccc2)c(=O)c2sccc21,-14.3,"0.164 µM [falling, full curve, poor fit]",–
COCCOC(=O)C1=C(C)Nc2nc(C)nn2C1c1ccc(F)cc1 (stereo not drawn),6.42,–,–
Cc1cc(C)cc(N(CCC#N)C(=O)COC(=O)CNC(=O)c2sc3ccccc3c2Cl)c1,30,–,–
Cn1nc(C(F)(F)F)c(-c2ccc(Br)cc2)c1NC(=O)CSCC(=O)O,-21.1,"7.31 µM [rising, partial curve]","0.00411 µM [falling, full curve, poor fit]"
CCCC1CCc2c(sc(NC(=O)c3cccs3)c2C(N)=O)C1 (stereo not drawn),-3.11,"0.058 µM [falling, full curve, poor fit]",–
C=C(C)c1cccc(C(C)(C)NC(=O)Nc2ccc(C(C)=O)cc2)c1,-53.6,"8.2 µM [rising, single point]",–
CN(C)/C=C1\C(=O)NN=C1C(F)(F)F,-110,–,"25.9 µM [falling, single point]"

# In the list so far, 3 contain two or more sulfur atoms:
SMILES,cell number change [%],AC50 [1],AC50 [2]
COc1cc(NS(=O)(=O)c2ccc(NS(=O)(=O)c3ccccc3)cc2)nc(OC)n1,-30.1,"0.146 µM [falling, full curve, poor fit]","2.59 µM [falling, full curve]"
CCC(C(=O)NCc1ccc(F)cc1)N(Cc1cccs1)C(=O)c1snc(C(N)=O)c1N (stereo not drawn),-6.58,–,–
CCCC1CCc2c(sc(NC(=O)c3cccs3)c2C(N)=O)C1 (stereo not drawn),-3.11,"0.058 µM [falling, full curve, poor fit]",–
